# Results are given in words; binding and its absence hold for the method and conditions named. In cells and extracts the contact can be indirect. Some binding calls cover weakened binding; strength is not graded here. Where a sequence is shown, tags or fusion partners need not be part of it.
# Chains of the proteins cited; added tags and fusions are not shown. Residues count along the entry.
# UniProt Q9UBV2, residues 22-794: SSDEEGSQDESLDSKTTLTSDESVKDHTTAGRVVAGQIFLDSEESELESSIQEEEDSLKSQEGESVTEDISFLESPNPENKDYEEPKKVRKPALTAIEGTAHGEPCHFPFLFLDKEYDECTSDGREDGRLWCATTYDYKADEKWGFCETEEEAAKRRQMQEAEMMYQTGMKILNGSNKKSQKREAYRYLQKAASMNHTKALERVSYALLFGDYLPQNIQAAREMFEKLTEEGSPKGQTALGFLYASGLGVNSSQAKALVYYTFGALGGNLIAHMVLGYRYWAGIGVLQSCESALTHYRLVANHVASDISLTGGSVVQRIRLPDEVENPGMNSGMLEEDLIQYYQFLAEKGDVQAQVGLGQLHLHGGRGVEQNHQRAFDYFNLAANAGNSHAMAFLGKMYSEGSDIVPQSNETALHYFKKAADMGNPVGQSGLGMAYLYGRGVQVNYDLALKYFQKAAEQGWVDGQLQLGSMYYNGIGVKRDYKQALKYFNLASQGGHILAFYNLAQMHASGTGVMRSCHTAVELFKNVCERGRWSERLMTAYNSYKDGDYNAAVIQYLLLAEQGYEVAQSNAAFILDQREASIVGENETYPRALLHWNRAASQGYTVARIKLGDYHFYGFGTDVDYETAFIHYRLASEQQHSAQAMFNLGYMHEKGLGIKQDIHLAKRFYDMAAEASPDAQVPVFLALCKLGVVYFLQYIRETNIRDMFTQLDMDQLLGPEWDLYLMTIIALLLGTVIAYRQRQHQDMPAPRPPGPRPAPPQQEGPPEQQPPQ
# T1: calnexin (human (endogenous in HEK 293T)) (UniProt P27824)
# T1 sequence: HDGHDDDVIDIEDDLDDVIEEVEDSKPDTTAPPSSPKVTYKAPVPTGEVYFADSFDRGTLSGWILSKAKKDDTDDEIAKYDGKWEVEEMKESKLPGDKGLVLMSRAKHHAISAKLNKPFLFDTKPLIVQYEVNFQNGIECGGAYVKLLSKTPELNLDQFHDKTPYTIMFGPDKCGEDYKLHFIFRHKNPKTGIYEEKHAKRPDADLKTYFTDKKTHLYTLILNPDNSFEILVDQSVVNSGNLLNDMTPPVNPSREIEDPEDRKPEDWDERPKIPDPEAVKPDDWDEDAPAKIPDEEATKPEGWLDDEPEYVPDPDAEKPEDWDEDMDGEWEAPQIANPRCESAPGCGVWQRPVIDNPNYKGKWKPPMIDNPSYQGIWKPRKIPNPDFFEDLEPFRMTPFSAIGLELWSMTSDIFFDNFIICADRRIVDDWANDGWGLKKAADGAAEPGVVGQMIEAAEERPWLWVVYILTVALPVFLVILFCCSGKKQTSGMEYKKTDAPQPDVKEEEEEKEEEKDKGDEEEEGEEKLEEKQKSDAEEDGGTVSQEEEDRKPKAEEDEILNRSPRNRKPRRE
# T2: wild type tyrosinase (UniProt P14679)
# T2 sequence: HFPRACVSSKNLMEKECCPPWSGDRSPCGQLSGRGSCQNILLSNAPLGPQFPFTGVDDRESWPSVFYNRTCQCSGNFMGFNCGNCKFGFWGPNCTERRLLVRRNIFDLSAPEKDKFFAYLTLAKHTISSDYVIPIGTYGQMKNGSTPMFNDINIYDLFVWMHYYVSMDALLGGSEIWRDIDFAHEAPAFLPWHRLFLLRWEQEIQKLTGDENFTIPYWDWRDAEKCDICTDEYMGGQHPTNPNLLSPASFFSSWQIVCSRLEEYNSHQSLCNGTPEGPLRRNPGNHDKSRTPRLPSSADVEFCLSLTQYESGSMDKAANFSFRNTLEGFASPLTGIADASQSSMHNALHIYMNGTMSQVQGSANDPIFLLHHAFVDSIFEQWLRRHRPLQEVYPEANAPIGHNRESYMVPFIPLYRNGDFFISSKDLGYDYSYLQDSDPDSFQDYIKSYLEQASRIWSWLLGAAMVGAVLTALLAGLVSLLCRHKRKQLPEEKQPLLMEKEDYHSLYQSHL
# T3: EDEM1 wild type (mouse), HA-tagged (mouse) (UniProt Q925U4)
# T3 sequence: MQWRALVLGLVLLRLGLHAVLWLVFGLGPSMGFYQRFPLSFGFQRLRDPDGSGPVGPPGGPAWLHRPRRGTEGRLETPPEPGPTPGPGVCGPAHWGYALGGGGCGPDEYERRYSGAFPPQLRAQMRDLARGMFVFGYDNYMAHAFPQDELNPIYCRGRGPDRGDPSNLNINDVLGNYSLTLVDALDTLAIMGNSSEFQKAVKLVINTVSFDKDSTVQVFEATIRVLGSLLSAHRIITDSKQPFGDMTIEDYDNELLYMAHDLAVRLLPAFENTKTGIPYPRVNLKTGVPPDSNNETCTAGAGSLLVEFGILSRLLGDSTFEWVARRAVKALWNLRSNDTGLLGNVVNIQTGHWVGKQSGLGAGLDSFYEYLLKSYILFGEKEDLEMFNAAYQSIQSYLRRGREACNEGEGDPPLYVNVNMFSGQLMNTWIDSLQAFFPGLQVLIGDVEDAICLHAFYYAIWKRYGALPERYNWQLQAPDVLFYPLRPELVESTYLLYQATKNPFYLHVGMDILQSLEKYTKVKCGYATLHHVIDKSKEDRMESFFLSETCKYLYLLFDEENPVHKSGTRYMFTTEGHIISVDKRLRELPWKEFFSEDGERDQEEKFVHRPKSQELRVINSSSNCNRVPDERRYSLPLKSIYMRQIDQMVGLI
# Assays:
# [1] = molecular target: SEL1L (human (endogenous in HEK 293T)) (UniProt Q9UBV2); assay: co-IP; HEK 293T cells overexpressing EDEM1 constructs, [35S] pulse-labelled and chased; endogenous calnexin or SEL1L immunoprecipitated with anti-calnexin or anti-SEL1L antibodies; SDS-PAGE and autoradiography
# [2] = molecular target: T1, calnexin (human (endogenous in HEK 293T)); assay: as above
# wild type tyrosinase = molecular target: T2, wild type tyrosinase; assay: co-IP; HEK 293T cells co-transfected with tyrosinase and EDEM1 constructs, [35S]-methionine/cysteine pulse 20 or 30 min, chase up to 2 h, lysed in 2% CHAPS, 50 mM Hepes, 200 mM NaCl, pH 7.5; immunoprecipitated with anti-tyrosinase (T311) or anti-EDEM1 (or HA) antibodies, 24 h at 4°C; SDS-PAGE and autoradiography
# [3] = molecular target: T3, EDEM1 wild type (mouse), HA-tagged (mouse); assay: as above
Binder,binding [1],binding [2],binding (wild type tyrosinase),binding [3]
"EDEM1 wild type (mouse), HA-tagged (protein, UniProt Q925U4 1-652) MQWRALVLGLVLLRLGLHAVLWLVFGLGPSMGFYQRFPLSFGFQRLRDPDGSGPVGPPGGPAWLHRPRRGTEGRLETPPEPGPTPGPGVCGPAHWGYALGGGGCGPDEYERRYSGAFPPQLRAQMRDLARGMFVFGYDNYMAHAFPQDELNPIYCRGRGPDRGDPSNLNINDVLGNYSLTLVDALDTLAIMGNSSEFQKAVKLVINTVSFDKDSTVQVFEATIRVLGSLLSAHRIITDSKQPFGDMTIEDYDNELLYMAHDLAVRLLPAFENTKTGIPYPRVNLKTGVPPDSNNETCTAGAGSLLVEFGILSRLLGDSTFEWVARRAVKALWNLRSNDTGLLGNVVNIQTGHWVGKQSGLGAGLDSFYEYLLKSYILFGEKEDLEMFNAAYQSIQSYLRRGREACNEGEGDPPLYVNVNMFSGQLMNTWIDSLQAFFPGLQVLIGDVEDAICLHAFYYAIWKRYGALPERYNWQLQAPDVLFYPLRPELVESTYLLYQATKNPFYLHVGMDILQSLEKYTKVKCGYATLHHVIDKSKEDRMESFFLSETCKYLYLLFDEENPVHKSGTRYMFTTEGHIISVDKRLRELPWKEFFSEDGERDQEEKFVHRPKSQELRVINSSSNCNRVPDERRYSLPLKSIYMRQIDQMVGLI",binds,binds,binds,
"EDEM1-ΔIDR (mouse EDEM1 lacking the ID region, amino acids 48-119), HA-tagged (protein, UniProt Q925U4) MQWRALVLGLVLLRLGLHAVLWLVFGLGPSMGFYQRFPLSFGFQRLRQLRAQMRDLARGMFVFGYDNYMAHAFPQDELNPIYCRGRGPDRGDPSNLNINDVLGNYSLTLVDALDTLAIMGNSSEFQKAVKLVINTVSFDKDSTVQVFEATIRVLGSLLSAHRIITDSKQPFGDMTIEDYDNELLYMAHDLAVRLLPAFENTKTGIPYPRVNLKTGVPPDSNNETCTAGAGSLLVEFGILSRLLGDSTFEWVARRAVKALWNLRSNDTGLLGNVVNIQTGHWVGKQSGLGAGLDSFYEYLLKSYILFGEKEDLEMFNAAYQSIQSYLRRGREACNEGEGDPPLYVNVNMFSGQLMNTWIDSLQAFFPGLQVLIGDVEDAICLHAFYYAIWKRYGALPERYNWQLQAPDVLFYPLRPELVESTYLLYQATKNPFYLHVGMDILQSLEKYTKVKCGYATLHHVIDKSKEDRMESFFLSETCKYLYLLFDEENPVHKSGTRYMFTTEGHIISVDKRLRELPWKEFFSEDGERDQEEKFVHRPKSQELRVINSSSNCNRVPDERRYSLPLKSIYMRQIDQMVGLI",binds,binds,binds weakly,
"EDEM1-AVV (mouse EDEM1 triple mutant D365A/E488V/T574V), HA-tagged (protein, UniProt Q925U4 1-652) MQWRALVLGLVLLRLGLHAVLWLVFGLGPSMGFYQRFPLSFGFQRLRDPDGSGPVGPPGGPAWLHRPRRGTEGRLETPPEPGPTPGPGVCGPAHWGYALGGGGCGPDEYERRYSGAFPPQLRAQMRDLARGMFVFGYDNYMAHAFPQDELNPIYCRGRGPDRGDPSNLNINDVLGNYSLTLVDALDTLAIMGNSSEFQKAVKLVINTVSFDKDSTVQVFEATIRVLGSLLSAHRIITDSKQPFGDMTIEDYDNELLYMAHDLAVRLLPAFENTKTGIPYPRVNLKTGVPPDSNNETCTAGAGSLLVEFGILSRLLGDSTFEWVARRAVKALWNLRSNDTGLLGNVVNIQTGHWVGKQSGLGAGLASFYEYLLKSYILFGEKEDLEMFNAAYQSIQSYLRRGREACNEGEGDPPLYVNVNMFSGQLMNTWIDSLQAFFPGLQVLIGDVEDAICLHAFYYAIWKRYGALPERYNWQLQAPDVLFYPLRPVLVESTYLLYQATKNPFYLHVGMDILQSLEKYTKVKCGYATLHHVIDKSKEDRMESFFLSETCKYLYLLFDEENPVHKSGTRYMFTVEGHIISVDKRLRELPWKEFFSEDGERDQEEKFVHRPKSQELRVINSSSNCNRVPDERRYSLPLKSIYMRQIDQMVGLI",binds,binds,binds,
"wild type tyrosinase (protein, UniProt P14679 19-529) HFPRACVSSKNLMEKECCPPWSGDRSPCGQLSGRGSCQNILLSNAPLGPQFPFTGVDDRESWPSVFYNRTCQCSGNFMGFNCGNCKFGFWGPNCTERRLLVRRNIFDLSAPEKDKFFAYLTLAKHTISSDYVIPIGTYGQMKNGSTPMFNDINIYDLFVWMHYYVSMDALLGGSEIWRDIDFAHEAPAFLPWHRLFLLRWEQEIQKLTGDENFTIPYWDWRDAEKCDICTDEYMGGQHPTNPNLLSPASFFSSWQIVCSRLEEYNSHQSLCNGTPEGPLRRNPGNHDKSRTPRLPSSADVEFCLSLTQYESGSMDKAANFSFRNTLEGFASPLTGIADASQSSMHNALHIYMNGTMSQVQGSANDPIFLLHHAFVDSIFEQWLRRHRPLQEVYPEANAPIGHNRESYMVPFIPLYRNGDFFISSKDLGYDYSYLQDSDPDSFQDYIKSYLEQASRIWSWLLGAAMVGAVLTALLAGLVSLLCRHKRKQLPEEKQPLLMEKEDYHSLYQSHL",,,,binds
